From patent US6569870B1, “Fluorinated quinolones as antimitotic and antitumor agents” (The University of North Carolina at Chapel Hill, priority 2000, dated 2003)
Some entries share one result that the patent states for a list of compounds.

System: T1, tubulin
T1 construct: ITP IC50 ± SD; other: 10 μM tubulin; ICB (% inhib ± SD); effect on tubulin polymerization; other: relative to combretastatin A-4; Ha
Assay: Inhibition of tubulin polymerization (ITP)
Format: biochemical

Structure (SMILES) | effect on tubulin polymerization
CCOC(=O)COc1cc(-c2ccccc2F)nc2cc3c(cc12)OCO3 [Compound 2, 2′-Fluoro-6,7-(methylenedioxy)-2-phenyl-4-(O-ethylacetate)quinoline] | little or no effect
O=C(O)COc1cc(-c2ccccc2F)nc2cc3c(cc12)OCO3 [Compound 3, 2′-Fluoro-6,7-(methylenedioxy)-2-phenyl-4-(O-acetic acid)quinoline] | little or no effect
O=C(O)CCCOc1cc(-c2ccccc2F)nc2cc3c(cc12)OCO3 [Compound 5, 2′-Fluoro-6,7-(methylenedioxy)-2-phenyl-4-(O-ethyl 4′-butylacetic acid)quinoline] | little or no effect
CCOC(=O)CCCOc1cc(-c2ccccc2F)nc2cc3c(cc12)OCO3 [Compound 4, 2′-Fluoro-6,7-(methylenedioxy)-2-phenyl-4-(O-ethyl 4′-butyrate)quinoline] | little or no effect
